Here are results for 1 substance from PMC8036704.

The chains behind the UniProt entries cited, without tags or fusion partners.
UniProt Q09666: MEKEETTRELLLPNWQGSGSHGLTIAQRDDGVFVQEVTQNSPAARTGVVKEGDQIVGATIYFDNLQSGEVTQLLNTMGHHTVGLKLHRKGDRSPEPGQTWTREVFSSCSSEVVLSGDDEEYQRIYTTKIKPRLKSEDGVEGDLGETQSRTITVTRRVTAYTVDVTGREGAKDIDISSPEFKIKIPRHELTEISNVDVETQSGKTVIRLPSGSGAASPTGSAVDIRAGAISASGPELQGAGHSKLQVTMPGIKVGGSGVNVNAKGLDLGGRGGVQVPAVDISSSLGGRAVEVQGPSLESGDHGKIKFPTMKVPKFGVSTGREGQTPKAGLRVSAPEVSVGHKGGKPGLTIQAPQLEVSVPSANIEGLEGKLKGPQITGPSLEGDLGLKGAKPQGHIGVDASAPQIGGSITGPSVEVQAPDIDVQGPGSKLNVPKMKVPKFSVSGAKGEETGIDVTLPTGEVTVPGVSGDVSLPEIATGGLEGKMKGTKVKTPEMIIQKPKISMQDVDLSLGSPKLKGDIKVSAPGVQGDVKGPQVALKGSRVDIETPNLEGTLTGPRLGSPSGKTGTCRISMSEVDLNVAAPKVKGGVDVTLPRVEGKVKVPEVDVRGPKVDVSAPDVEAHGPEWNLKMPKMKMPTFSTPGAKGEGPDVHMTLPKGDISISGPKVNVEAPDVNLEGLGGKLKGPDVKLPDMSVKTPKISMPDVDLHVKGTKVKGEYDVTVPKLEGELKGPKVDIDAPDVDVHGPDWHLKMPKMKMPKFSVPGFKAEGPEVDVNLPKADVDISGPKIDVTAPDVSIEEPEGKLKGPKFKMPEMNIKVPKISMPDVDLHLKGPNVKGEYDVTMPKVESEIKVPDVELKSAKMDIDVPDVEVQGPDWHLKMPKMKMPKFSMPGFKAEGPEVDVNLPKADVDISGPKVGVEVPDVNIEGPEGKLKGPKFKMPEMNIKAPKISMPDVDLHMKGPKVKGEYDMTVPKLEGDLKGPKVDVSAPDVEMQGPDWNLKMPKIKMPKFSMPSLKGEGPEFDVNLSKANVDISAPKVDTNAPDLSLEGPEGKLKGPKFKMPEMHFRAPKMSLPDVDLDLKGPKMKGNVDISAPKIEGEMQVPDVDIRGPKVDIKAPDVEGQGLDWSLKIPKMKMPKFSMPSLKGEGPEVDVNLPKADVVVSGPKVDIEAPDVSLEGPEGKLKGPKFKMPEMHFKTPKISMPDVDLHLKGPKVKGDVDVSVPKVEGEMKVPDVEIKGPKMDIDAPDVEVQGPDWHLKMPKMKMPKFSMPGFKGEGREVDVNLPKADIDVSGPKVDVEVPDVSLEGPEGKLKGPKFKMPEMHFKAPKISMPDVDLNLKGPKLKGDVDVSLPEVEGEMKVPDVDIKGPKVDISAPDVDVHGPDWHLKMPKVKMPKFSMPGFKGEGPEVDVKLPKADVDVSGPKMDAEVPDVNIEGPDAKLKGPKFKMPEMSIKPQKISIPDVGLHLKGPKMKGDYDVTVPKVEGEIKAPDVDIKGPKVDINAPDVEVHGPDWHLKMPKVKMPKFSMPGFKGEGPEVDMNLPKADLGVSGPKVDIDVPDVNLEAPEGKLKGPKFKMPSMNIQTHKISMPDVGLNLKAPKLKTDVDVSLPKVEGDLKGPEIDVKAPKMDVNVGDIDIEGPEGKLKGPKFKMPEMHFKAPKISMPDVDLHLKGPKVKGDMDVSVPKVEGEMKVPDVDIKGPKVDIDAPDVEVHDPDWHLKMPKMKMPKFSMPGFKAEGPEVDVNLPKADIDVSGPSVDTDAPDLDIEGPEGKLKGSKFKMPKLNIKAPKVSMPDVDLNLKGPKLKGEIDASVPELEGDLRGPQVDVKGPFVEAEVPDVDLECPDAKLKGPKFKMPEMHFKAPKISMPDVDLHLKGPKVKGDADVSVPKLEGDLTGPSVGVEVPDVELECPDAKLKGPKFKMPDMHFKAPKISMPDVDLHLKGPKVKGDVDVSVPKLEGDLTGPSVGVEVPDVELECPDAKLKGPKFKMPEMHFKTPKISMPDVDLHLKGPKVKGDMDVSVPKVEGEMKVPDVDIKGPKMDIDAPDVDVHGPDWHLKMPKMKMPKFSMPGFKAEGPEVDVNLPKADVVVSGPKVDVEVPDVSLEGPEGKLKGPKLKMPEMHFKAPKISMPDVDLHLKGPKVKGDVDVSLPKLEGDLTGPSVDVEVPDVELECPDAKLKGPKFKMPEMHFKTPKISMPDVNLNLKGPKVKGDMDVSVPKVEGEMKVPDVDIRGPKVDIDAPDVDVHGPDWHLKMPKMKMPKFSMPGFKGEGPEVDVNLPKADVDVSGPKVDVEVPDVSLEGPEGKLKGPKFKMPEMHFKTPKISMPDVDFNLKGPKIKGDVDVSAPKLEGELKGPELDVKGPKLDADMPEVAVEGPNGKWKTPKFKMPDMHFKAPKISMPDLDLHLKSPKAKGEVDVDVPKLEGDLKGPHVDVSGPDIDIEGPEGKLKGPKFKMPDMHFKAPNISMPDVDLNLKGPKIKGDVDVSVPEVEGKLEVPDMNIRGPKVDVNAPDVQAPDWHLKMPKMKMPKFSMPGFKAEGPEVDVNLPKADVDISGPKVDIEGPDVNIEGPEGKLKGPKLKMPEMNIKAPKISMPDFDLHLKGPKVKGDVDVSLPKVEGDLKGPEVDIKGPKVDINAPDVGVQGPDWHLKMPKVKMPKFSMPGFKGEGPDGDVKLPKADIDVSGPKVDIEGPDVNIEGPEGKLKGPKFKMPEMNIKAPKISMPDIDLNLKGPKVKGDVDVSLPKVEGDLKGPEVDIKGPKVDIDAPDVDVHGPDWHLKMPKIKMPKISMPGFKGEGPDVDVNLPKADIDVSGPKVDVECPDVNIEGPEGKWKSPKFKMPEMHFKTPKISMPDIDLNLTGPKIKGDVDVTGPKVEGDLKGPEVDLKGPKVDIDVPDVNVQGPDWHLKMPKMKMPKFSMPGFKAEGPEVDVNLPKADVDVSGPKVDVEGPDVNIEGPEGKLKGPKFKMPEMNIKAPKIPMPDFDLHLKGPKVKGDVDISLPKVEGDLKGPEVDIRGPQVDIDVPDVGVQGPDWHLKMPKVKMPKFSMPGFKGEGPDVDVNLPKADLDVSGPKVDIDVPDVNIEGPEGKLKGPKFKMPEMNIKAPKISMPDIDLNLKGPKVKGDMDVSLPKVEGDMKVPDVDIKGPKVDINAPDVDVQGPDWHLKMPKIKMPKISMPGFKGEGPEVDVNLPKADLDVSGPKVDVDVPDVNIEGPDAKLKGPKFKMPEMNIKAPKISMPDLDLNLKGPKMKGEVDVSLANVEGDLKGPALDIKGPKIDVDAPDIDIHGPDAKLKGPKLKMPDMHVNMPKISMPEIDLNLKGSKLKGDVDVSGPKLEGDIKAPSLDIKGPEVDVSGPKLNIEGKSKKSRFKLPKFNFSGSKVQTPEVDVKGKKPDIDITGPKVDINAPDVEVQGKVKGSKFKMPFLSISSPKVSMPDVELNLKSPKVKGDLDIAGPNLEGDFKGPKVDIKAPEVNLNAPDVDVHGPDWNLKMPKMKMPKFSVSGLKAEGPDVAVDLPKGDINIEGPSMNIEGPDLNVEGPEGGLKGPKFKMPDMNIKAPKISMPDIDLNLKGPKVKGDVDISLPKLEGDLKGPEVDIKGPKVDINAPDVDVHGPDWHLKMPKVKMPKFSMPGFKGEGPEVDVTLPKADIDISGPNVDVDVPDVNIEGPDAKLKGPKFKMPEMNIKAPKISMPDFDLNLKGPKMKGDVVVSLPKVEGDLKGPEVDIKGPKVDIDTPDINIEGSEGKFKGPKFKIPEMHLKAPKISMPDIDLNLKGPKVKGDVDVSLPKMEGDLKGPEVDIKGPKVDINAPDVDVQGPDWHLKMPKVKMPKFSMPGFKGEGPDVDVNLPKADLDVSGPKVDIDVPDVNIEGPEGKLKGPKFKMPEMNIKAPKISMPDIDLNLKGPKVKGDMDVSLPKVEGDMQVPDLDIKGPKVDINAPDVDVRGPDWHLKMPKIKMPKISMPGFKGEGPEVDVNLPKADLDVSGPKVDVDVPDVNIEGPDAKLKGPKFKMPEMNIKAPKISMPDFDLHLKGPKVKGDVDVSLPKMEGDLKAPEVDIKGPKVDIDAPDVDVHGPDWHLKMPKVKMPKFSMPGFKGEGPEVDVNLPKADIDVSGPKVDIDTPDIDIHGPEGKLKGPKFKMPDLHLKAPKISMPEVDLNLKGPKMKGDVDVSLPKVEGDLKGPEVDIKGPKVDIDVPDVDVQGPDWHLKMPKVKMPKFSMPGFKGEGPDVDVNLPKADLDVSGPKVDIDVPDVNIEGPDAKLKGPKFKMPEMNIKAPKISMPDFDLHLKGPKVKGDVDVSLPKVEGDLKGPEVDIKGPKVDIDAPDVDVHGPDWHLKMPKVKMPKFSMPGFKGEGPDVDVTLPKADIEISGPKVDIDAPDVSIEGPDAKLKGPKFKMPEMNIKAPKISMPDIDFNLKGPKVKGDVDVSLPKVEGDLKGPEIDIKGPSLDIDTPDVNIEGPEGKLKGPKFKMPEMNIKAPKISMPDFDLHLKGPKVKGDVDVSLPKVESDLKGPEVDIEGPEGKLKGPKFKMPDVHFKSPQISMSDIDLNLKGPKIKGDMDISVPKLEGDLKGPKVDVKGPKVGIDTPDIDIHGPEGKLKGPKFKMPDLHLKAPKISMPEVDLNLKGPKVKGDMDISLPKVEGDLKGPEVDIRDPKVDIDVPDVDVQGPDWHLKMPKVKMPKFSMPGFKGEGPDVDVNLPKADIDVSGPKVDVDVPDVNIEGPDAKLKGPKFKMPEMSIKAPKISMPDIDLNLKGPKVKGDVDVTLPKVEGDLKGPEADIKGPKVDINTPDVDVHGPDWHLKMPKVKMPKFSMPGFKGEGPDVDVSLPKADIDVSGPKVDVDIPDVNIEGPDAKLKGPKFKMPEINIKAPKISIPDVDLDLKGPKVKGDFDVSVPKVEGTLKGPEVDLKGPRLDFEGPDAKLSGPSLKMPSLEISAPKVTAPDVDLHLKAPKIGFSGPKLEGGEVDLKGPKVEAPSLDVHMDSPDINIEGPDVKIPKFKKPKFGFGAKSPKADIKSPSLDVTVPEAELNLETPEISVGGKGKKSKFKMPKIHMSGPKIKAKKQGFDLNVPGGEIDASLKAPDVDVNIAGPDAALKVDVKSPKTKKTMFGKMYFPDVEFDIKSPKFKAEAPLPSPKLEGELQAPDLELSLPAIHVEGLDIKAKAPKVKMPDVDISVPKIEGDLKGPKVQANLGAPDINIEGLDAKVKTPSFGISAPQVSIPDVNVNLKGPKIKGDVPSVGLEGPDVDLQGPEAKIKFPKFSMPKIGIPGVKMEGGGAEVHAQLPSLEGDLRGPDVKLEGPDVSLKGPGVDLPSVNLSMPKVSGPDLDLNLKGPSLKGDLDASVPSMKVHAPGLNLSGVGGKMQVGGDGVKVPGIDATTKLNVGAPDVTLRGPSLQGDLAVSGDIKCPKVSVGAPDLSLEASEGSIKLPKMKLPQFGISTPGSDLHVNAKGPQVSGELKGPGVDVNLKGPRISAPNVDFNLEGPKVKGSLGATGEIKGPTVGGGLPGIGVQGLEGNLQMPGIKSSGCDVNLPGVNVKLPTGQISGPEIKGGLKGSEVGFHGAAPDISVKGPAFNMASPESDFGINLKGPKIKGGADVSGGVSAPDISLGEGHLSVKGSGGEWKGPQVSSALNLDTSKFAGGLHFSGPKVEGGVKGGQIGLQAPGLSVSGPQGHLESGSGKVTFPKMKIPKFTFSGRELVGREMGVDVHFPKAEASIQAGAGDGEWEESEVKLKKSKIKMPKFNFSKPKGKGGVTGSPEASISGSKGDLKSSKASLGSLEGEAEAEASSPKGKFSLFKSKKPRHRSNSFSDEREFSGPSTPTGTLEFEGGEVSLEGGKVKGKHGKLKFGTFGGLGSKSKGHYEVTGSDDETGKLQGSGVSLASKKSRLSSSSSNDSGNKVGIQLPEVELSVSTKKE

Results are given in words; binding and its absence hold for the method and conditions named. Binding seen in cells or lysates may run through a third protein. Some results given as binding are weak or reduced against the parent protein; the word gives no strength.

The target of this experiment is AHNAK (human (endogenous in UCB CD34+ cells)) (UniProt Q09666). Briefly: proximity ligation; Duolink in situ PLA on fixed, permeabilised UCB CD34+ cells (cytospin); endogenous AHNAK with ANXA2 or PLEC; negative control without primary antibody; confocal microscopy.

As for PLEC (from UniProt Q15149 1-4684), the binding entry is on record as “binds”.
